The exact form of at least one protein or probe is not confirmed. For some assays here: Weaker means in comparison with the reference protein, sequence or condition of that experiment. For some assays here: At least one verdict was read from the data and is not stated in words by the source.
Columns and labels:
[1] = target: DnaA I190A (Bacillus subtilis) (UniProt P05648); assay: EMSA; conditions: 1 mM ATP, less high molecular weight species, no Cy5 strand release; EMSA: 25 nM scaffold, 0-250 nM DnaA, 10 mM HEPES-KOH pH 8, 100 mM potassium glutamate, 1 mM magnesium acetate, 30% glycerol, 10% DMSO, 1 mM ADP or ATP, 20°C 2 h; recombinant protein; protein details: N-terminal His-tag removed with Factor Xa; label: 5' Cy3 on strand 1, 5' Cy5 on strand 2
[2] = target: DnaA wild-type (Bacillus subtilis) (UniProt P05648); assay: EMSA; conditions: 1 mM ADP; EMSA: 25 nM scaffold, 0-250 nM DnaA, 10 mM HEPES-KOH pH 8, 100 mM potassium glutamate, 1 mM magnesium acetate, 30% glycerol, 10% DMSO, 1 mM ADP or ATP, 20°C 2 h; recombinant protein; protein details: N-terminal His-tag removed with Factor Xa; label: 5' Cy5 on strand 2

“ACTTATCCACAAATCCACAGGCCC / TACTATTACTTCTACTA / TAGTAGAAGTAATAGTAGGGCCTGTGGATTTGTGGATAAGT”: binds more weakly [1].

“CGTTCGGCTGCGGCGAGCGGTATCAGCTCACTCAAAGGCGGTAATACGGTTATCCACAAATCCACAGGCCC / TACTATTACTTCTACTA / TAGTAGAAGTAATAGTAGGGCCTGTGGATTTGTGGATAACCGTATTACCGCCTTTGAGTGAGCTGATACCGCTCGCCGCAGCCGAACG [Wild-type long scaffold, oHM616/oHM590/oHM615]”: binds [2].

From PMC6669920
